Laboratory results taken from publication doi:10.1101/2020.05.24.113076.
No constants are given. Whether binding was seen depends on the method and setting. Binding seen in cells or lysates may run through a third protein. Some results given as binding are weak or reduced against the parent protein; the word gives no strength.

The chains behind the UniProt entries cited, without tags or fusion partners.
UniProt Q9QVP9: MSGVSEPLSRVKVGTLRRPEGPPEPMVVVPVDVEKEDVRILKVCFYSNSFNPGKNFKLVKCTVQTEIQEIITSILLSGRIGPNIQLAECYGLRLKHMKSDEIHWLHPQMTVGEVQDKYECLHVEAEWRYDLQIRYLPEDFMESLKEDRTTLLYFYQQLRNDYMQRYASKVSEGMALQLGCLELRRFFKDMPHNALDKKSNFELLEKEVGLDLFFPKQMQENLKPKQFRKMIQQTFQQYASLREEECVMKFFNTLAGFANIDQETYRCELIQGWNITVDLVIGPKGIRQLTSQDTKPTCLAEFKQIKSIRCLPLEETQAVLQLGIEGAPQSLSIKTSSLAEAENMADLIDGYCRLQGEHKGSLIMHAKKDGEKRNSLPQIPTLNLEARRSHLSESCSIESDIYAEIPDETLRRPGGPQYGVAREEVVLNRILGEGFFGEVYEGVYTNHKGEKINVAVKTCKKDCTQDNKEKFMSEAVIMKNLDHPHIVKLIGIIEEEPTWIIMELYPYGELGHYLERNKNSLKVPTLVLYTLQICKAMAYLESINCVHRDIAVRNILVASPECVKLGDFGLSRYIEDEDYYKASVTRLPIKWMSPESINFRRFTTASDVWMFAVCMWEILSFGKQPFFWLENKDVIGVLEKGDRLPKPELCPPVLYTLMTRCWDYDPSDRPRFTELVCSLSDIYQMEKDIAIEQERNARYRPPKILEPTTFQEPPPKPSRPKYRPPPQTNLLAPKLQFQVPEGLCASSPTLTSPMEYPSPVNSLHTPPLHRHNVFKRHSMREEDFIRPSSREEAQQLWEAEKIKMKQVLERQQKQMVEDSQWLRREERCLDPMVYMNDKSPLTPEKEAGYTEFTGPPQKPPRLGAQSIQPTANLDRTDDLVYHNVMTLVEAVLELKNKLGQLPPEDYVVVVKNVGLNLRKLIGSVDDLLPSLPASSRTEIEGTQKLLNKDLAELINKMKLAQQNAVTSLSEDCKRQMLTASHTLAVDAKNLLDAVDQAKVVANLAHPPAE
UniProt P56477: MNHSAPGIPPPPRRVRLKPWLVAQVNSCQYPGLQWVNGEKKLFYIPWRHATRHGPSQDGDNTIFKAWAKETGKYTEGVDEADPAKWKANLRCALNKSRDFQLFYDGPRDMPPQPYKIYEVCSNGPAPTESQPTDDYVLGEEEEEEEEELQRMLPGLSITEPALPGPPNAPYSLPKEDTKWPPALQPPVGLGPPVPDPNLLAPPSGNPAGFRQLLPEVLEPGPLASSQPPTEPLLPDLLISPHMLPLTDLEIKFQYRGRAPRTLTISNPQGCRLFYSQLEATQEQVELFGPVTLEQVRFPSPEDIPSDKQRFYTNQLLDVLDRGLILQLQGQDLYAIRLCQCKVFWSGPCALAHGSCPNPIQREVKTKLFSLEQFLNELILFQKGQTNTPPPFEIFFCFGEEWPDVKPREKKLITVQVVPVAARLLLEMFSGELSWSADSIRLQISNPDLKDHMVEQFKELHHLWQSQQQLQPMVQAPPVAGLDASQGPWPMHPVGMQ

Target: PYK2, endogenous in RAW264.7 macrophages (mouse (endogenous in RAW264.7)) (UniProt Q9QVP9)
Assay: co-IP

In the case of “IRF5, endogenous in RAW264.7 macrophages (from UniProt P56477 1-497)”, the binding was “binds”.
